Test results as given in PubChem BioAssay AID651640 (Broad Institute, 2012).
The whole screen tested about 350,000 compounds, of which about 6,000 (1.7%) were called active. The shares of active, inactive and inconclusive entries below differ from those in the screen. No stated cut-off is given here; in the data, active means CPE inhibition above about 20% (passing the limit was not always enough); inconclusive means no clear call, values can overlap the other calls; tested in BHK-21 cells.

Assay: protection of cells from dengue 2 killing – plate reader, single concentration, primary screen (AID 651640);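 further: 0% = median of neutral control wells and 100% = median of positive control wells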
Settings: DENV2-infected cells, cytopathic effect rescue, at 9.99 µM, stronger effect = higher value
In the case of CCOc1ccccc1C1c2[nH]c3ccccc3c2C[C@H]2C(=O)N(C3CCN(Cc4ccccc4)CC3)CC(=O)N12 (stereo partly specified), the CPE inhibition is reported as inactive: -0.986%. For Cc1ccc(C(=O)NCC(c2ccco2)N2CCc3ccccc32)cc1C (stereo unspecified), the CPE inhibition was inconclusive: 71.3%. In the case of Cc1[nH]c2ccccc2c1N=Nc1cc(C(=O)O)cc(C(=O)O)c1, the CPE inhibition is reported as inactive: -4.44%. With C[C@H]1CN([C@@H](C)CO)C(=O)Cc2cc(NS(C)(=O)=O)ccc2O[C@H]1CN(C)C(=O)Nc1ccc2c(c1)OCO2 the CPE inhibition was inconclusive: 58.7%. In the case of COc1ccc2oc3cc(NCCN(C)C)ccc3c(=O)c2c1, the CPE inhibition is reported as inconclusive: 31.1%. In the case of Cc1ccc(-n2ccc(=O)c(C(=O)Nc3ccc(S(=O)(=O)Nc4nccc(C)n4)cc3)n2)cc1, the CPE inhibition is reported as inconclusive: 26.7%. With CCCc1cn([C@H]2C[C@@H]3O[C@H](CO)CC[C@@H]3O[C@@H]2CCc2ccc(-c3ccc(OC)cc3)cc2)nn1 the CPE inhibition was inactive: 2.61%. In the case of CCNC(=O)C1CCCN(C(=O)c2ccc(OC)cc2)CC1 (stereo unspecified), the CPE inhibition is reported as inactive: -4.33%. With CO[C@H]1CN(C)C(=O)c2cc(NC(=O)C3CCCC3)ccc2OC[C@H](C)N(CC2CC2)C[C@@H]1C the CPE inhibition was inactive: 2.23%. For Cc1ccc(NC(=O)N2CCCC2C(=O)NCc2ccc(Cl)cc2)cc1 (stereo unspecified), the CPE inhibition was inconclusive: 21.1%. With Cc1cc(C)c2c(=O)n(CC(=O)NC3CCCC3)sc2n1 the CPE inhibition was inconclusive: 34.1%. For COc1cc(OC)cc(C(=O)NC(=S)Nc2cc3oc4ccccc4c3cc2OC)c1, the CPE inhibition was inconclusive: 40.8%. In the case of C[C@@H]1CCCCO[C@H](CN(C)C(=O)NC2CCCCC2)[C@H](C)CN([C@@H](C)CO)C(=O)c2cc(NC(=O)c3ccccc3)ccc2O1, the CPE inhibition is reported as active: 42.6%. With Cn1c(=O)n(C)c2cc(S(=O)(=O)Nc3ccccc3C(=O)O)ccc21 the CPE inhibition was inconclusive: 21.9%. In the case of C=CCNC(=S)N1CCC(C(=O)c2ccc(F)cc2)CC1, the CPE inhibition is reported as active: 53.3%. For C=C[C@@]1(C)CC(=O)[C@]2(O)[C@@]3(C)[C@@H](O)CCC(C)(C)[C@@H]3[C@H](O)[C@H](OC(C)=O)[C@@]2(C)O1, the CPE inhibition was inactive: -3.36%. In the case of COc1ccc(S(=O)(=O)Nc2ccc3c(c2)C(=O)N([C@H](C)CO)C[C@H](C)[C@H](CN(C)Cc2ccc4c(c2)OCO4)OCCCC[C@H](C)O3)cc1, the CPE inhibition is reported as active: 58.5%. In the case of CCCCCCc1ccc(N2C[C@H](CCCCC)[C@@H](CC(=O)NCc3ccc(OC)cc3)C2=O)cc1, the CPE inhibition is reported as active: 94.7%. For CCOc1ccc(C(=O)OCC(=O)NCC2CCCO2)cc1 (stereo unspecified), the CPE inhibition was inconclusive: 81.9%. For CCOc1c(Br)cc(C(=O)NCCCn2ccnc2)cc1OC, the CPE inhibition was inconclusive: 24.2%. With CC1=CC(C)(C)n2c(O)c(N=N)c3cc(C)cc1c32 the CPE inhibition was active: 49.2%. For O=C(NCCO)c1cc2c([nH]c3ccccc32)c(-c2ccccc2)n1, the CPE inhibition was inactive: 0.617%. For C[C@@H]1CN([C@H](C)CO)C(=O)c2cc(NC(=O)Nc3cccc4ccccc34)ccc2O[C@@H]1CN(C)C(=O)Nc1ccccc1, the CPE inhibition was inconclusive: 38.4%. For O=C(CCCNC(=O)c1ccc(Cl)cc1)Nc1ccc(S(=O)(=O)Nc2ncccn2)cc1, the CPE inhibition was inconclusive: 20.3%. With COc1ccc(CN(C)C[C@@H]2Oc3c(NS(=O)(=O)c4ccc(Cl)cc4)cccc3C(=O)N([C@@H](C)CO)C[C@@H]2C)cc1 the CPE inhibition was inconclusive: 34.6%. With CCOc1ccc(NS(=O)(=O)c2ccc(C(=O)NCC(c3ccco3)N(C)C)cc2)cc1 (stereo unspecified) the CPE inhibition was inconclusive: 62.3%. In the case of COC(=O)[C@H]1C[C@@H]1[C@H](NC(=O)OCc1ccccc1)c1ccccc1, the CPE inhibition is reported as inconclusive: 46.3%. With C[C@@H]1CN([C@H](C)CO)C(=O)c2cc(NC(=O)Nc3ccc4c(c3)OCO4)ccc2O[C@@H](C)CCCCO[C@@H]1CN(C)Cc1ccc(C(=O)O)cc1 the CPE inhibition was inconclusive: 20.1%. With C[C@H]1CN([C@@H](C)CO)C(=O)c2cccc(NC(=O)Nc3ccc(F)cc3)c2O[C@@H]1CN(C)C(=O)Nc1ccc(C(F)(F)F)cc1 the CPE inhibition was active: 57.1%. For O=C(Nc1ccccc1N1CCCCC1)c1cccc([N+](=O)[O-])c1, the CPE inhibition was inconclusive: 20.5%. In the case of COc1ccccc1CN1CC(C(=O)NC2CCOCC2)CCC1=O (stereo unspecified), the CPE inhibition is reported as inconclusive: 23.3%. With COc1ccc(C(=O)COC(=O)CCCN=C2NS(=O)(=O)c3ccccc32)c(OC)c1 the CPE inhibition was active: 35.8%. With Cc1noc(C)c1S(=O)(=O)Nc1ccc2c(c1)C(=O)N([C@H](C)CO)C[C@H](C)[C@H](CN(C)Cc1ccc(C(=O)O)cc1)OCCCC[C@@H](C)O2 the CPE inhibition was active: 50.4%. With CCNc1nc2c(c(=O)[nH]c(=O)n2C)n1Cc1ccc(F)cc1 the CPE inhibition was inconclusive: 43.1%. For O=C(CC1CC1)N1CC2(C1)[C@H](c1ccccc1)[C@H](CO)N2Cc1ccccn1, the CPE inhibition was active: 22.7%. In the case of CCOc1ccc(CCN2C(=O)C(=O)N([C@@H](CC(C)C)CN3CCC[C@H]3CN3C(=O)C(=O)NC[C@@H]3Cc3ccccc3)C[C@@H]2Cc2ccccc2)cc1, the CPE inhibition is reported as inconclusive: 38.2%. In the case of C[C@H](CO)N1C[C@H](C)[C@@H](CN(C)Cc2cncnc2)Oc2cc(-c3cncnc3)ccc2S1(=O)=O, the CPE inhibition is reported as inconclusive: 8.58%. For S=C(NCCCc1ccccc1)NCc1ccccc1, the CPE inhibition was inconclusive: 46.2%. For CC1(C(=O)NS(=O)(=O)c2ccccc2C(F)(F)F)CCN1C(=O)CCc1ccccc1 (stereo unspecified), the CPE inhibition was active: 49.4%. In the case of CC(C)N=c1c([N+](=O)[O-])nn(C)n1O, the CPE inhibition is reported as inconclusive: 46.5%. With CCC(=O)N1C[C@@H](O)COC[C@H]2O[C@H](CC(=O)NCC3CCCCC3)CC[C@@H]21 the CPE inhibition was inactive: -3.58%. For COc1cc2c(cc1OC)CN(C1CCC(C)CC1)CC2 (stereo unspecified), the CPE inhibition was inconclusive: 42.1%. For NCC1C2CCC(O2)C1CO (stereo unspecified), the CPE inhibition was inconclusive: 32.7%. In the case of CCCC(=O)N1CC2(CN[C@@H](CO)c3c2c2ccc(OC)cc2n3C)C1, the CPE inhibition is reported as inconclusive: 45.5%. With Cc1ccc2c(COC(=O)c3c(C)noc3C)cc(=O)oc2c1 the CPE inhibition was inconclusive: 24.1%. In the case of CCCCOc1ccc(C(=O)NCCC(=O)NCCCC(=O)OCC)cc1, the CPE inhibition is reported as inconclusive: 48.8%. In the case of N#Cc1cc(Oc2cccc3cccnc23)c(-n2nnc3ccccc32)cc1C#N, the CPE inhibition is reported as inactive: 1.98%. For COC(=O)c1[nH]c2ccccc2c1Sc1ccccc1, the CPE inhibition was inactive: 2.3%. With O=c1cc(-c2ccccc2)oc2cc(O)cc(O)c12 the CPE inhibition was inconclusive: 47%. For C[C@H](CO)N1C[C@H](C)[C@H](CN(C)C(=O)Nc2ccc(F)cc2)Oc2c(NS(C)(=O)=O)cccc2C1=O, the CPE inhibition was inactive: 16%. With CCC(=O)N1[C@H](CO)[C@H](c2ccccc2)[C@H]1CN(CC1CCC1)S(C)(=O)=O the CPE inhibition was inactive: 17.5%. For CC(C)NC(=O)Nc1cccc2c1O[C@H](CN(C)C)[C@H](C)CN([C@@H](C)CO)C2=O, the CPE inhibition was inconclusive: 53.4%. For CC1(C(=O)NCc2ccc(Cl)cc2)CCN1C(=O)Cc1ccc(Cl)cc1Cl (stereo unspecified), the CPE inhibition was inconclusive: 32.2%. For O=C(Nc1ccc(Br)cn1)c1cccc(S(=O)(=O)N2CCCC2)c1, the CPE inhibition was inconclusive: 35.9%. With CCCC1SCC(C)(C)NC1=O (stereo unspecified) the CPE inhibition was inconclusive: 51%. With CC(C)CC#Cc1cnc2c(c1)C(=O)N([C@H](C)CO)C[C@H](C)[C@H](CN(C)Cc1ccccn1)O2 the CPE inhibition was inconclusive: 37.4%. With C[C@@H]1CN([C@@H](C)CO)S(=O)(=O)c2ccc(C#CCN(C)C)cc2O[C@@H]1CN(C)Cc1ccc(F)cc1 the CPE inhibition was inconclusive: 38.5%. With Cc1ccc([C@H]2C[C@@H](O)[C@H](n3cc(COC(=O)c4ccccc4)nn3)CN2Cc2cccs2)cc1 the CPE inhibition was inconclusive: 22.7%. In the case of COc1ccccc1C1c2ccc3ccccc3c2Oc2ncn(CCN(C)C)c(=N)c21 (stereo unspecified), the CPE inhibition is reported as inactive: -2.89%. With Cc1cccc(NC(=O)CSc2nc3[nH]c(=O)cc(O)c3s2)c1 the CPE inhibition was inconclusive: 30.9%. With CCCn1c(C)cc(C(=O)CN2C(=O)NC3(CCCCCC3)C2=O)c1C the CPE inhibition was inconclusive: 44.3%. In the case of CNc1ccccc1C(=O)OCC(=O)c1ccccc1, the CPE inhibition is reported as active: 32%. For CCN(CC)S(=O)(=O)c1ccc(SCC(=O)c2c(N)n(C3CC3)c(=O)[nH]c2=O)nc1, the CPE inhibition was inconclusive: 44.2%. For OC(CNCCc1ccc(C(F)(F)F)cc1)COC(c1ccccc1)c1ccccc1 (stereo unspecified), the CPE inhibition was inactive: -3.2%. With C[C@@H]1CN([C@H](C)CO)C(=O)c2cccc(NC(=O)C3CCCCC3)c2O[C@@H]1CN(C)S(=O)(=O)c1ccc(F)cc1 the CPE inhibition was inconclusive: 21%. With Cc1ccc(-c2nnc(SCC(N)=O)n2C)cc1 the CPE inhibition was inactive: -0.641%. For C[C@@H]1CN([C@H](C)CO)C(=O)c2cc(C3=CCCCC3)cnc2O[C@H]1CN(C)Cc1cccc(F)c1, the CPE inhibition was inactive: 6.71%. With CCCCCn1c(=NC(=O)c2ccco2)c(C(=O)OCC)cc2c(=O)n3ccccc3nc21 the CPE inhibition was inconclusive: 29.3%. With CC(Nc1ccccc1N1CCCCC1)C(=O)N1CCc2ccccc21 (stereo unspecified) the CPE inhibition was inactive: 12%. In the case of O=C(NCC[C@@H]1CC[C@H](NS(=O)(=O)c2ccc(F)cc2)[C@@H](CO)O1)c1ccccc1F, the CPE inhibition is reported as inconclusive: 24.2%. In the case of CCOC(=O)C1=C(C)NC(C)=C(C(=O)OCC)C1c1cccc([N+](=O)[O-])c1, the CPE inhibition is reported as inconclusive: 27.3%. With COc1cc(CNC(=O)Nc2nc(C(N)Cc3ccc(Cl)cc3)cs2)cc(OC)c1OC (stereo unspecified) the CPE inhibition was inconclusive: 22.3%. In the case of CN1CCN(C(=O)C2=C[C@@H](c3ccccc3)C[C@@H](OCc3ccc(CO)cc3)O2)CC1, the CPE inhibition is reported as inconclusive: 25%. With Cc1ccc(Nc2nnc(SCC(=O)c3ccc(O)cc3O)s2)cc1 the CPE inhibition was inconclusive: 32.2%. With CCCCC(=O)N(Cc1ccc2c(c1)OCO2)Cc1nc2ccccc2c(=O)[nH]1 the CPE inhibition was inactive: 1.36%. With COCCNC(=O)c1ccc(CS(=O)(=O)c2c(Cl)cccc2Cl)o1 the CPE inhibition was active: 58.4%.
